Results on 22 compounds are retold here after PubChem BioAssay AID292 (DTP/NCI, 2004).

In this test the test system is B6C3F1 mice, ip Sarcoma M5076, median survival T/C. The experiment in a line: NCI In Vivo Anticancer Drug Screen. Data for tumor model Sarcoma M5076 (intraperitoneal) in B6C3F1 mice. The note with it: T/C endpoint: median survival time, schedule: Q04DX004 (ip), higher T/C = longer survival. The method, boiled down: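 Transplantable tumour in mice; compound-treated vs vehicle-treated groups. Read-out: survival. Value = treated/control ratio.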

Where [1] appears, read: dose: 800.0 mg/kg/injection, vehicle: saline with Tween-80.
The mark [2] stands for this setting: dose: 100.0 mg/kg/injection, vehicle: saline with Tween-80.
Setting [3] is: dose: 400.0 mg/kg/injection, vehicle: Klucel (hydroxypropylcellulose) (HPC).
Setting [4] is: dose: 800.0 mg/kg/injection, vehicle: Klucel (hydroxypropylcellulose) (HPC).
The mark [5] stands for this setting: dose: 50.0 mg/kg/injection, vehicle: saline with Tween-80.
[6] abbreviates: dose: 50.0 mg/kg/injection, vehicle: distilled water + Tween-80.
Where [7] appears, read: dose: 400.0 mg/kg/injection, vehicle: distilled water + Tween-80.
The mark [8] stands for this setting: dose: 800.0 mg/kg/injection, vehicle: distilled water + Tween-80.

The list shows only some results of the screen, not a fair sample: it gathers tests that were run many times, whatever their T/C, doses with no T/C, and many T/C values between a quarter and a half above the control. Further doses and runs are listed elsewhere. T/C gives the treated animals as a percentage of the vehicle group. Some doses have a count of surviving animals in place of a T/C: the source files T/C as zero there, which appears to mark a toxic dose or a test without result, not a measured value. Some survivor counts are full or nearly so, which does not show that the dose was tolerated: the source hardly ever lists a survival T/C far under the control, and the zero likely stands for such cases as well. Counts of survivors are from the toxicity check (mostly the fifth day) where no day follows; animals may have died later. Schedules are NCI's codes, read here as Q, the interval in days (D) or hours (H), X, the number of doses. Where survival is the endpoint, this PubChem deposit counts one and a half times the control or more as active, and values a quarter to a half above the control carry no call in these data; other NCI protocols may use other cut-offs. Some entries were tested several times; the results are listed from low to high. Some T/C values carry the count of animals alive at the toxicity check (mostly the fifth day); without a count, all were alive then.

Regarding `COc1ccc(-n2cc[n+](C)c2/C=N\O)cc1`, the survivor count is, setting by setting: (dose: 250.0 mg/kg/injection, vehicle: saline with Tween-80) 0 of 10 on day 14; (dose: 500.0 mg/kg/injection, vehicle: saline with Tween-80) 0 of 10 on day 14.

As to `COc1cc([C@@H]2c3cc4c(cc3[C@H](O)[C@H]3COC(=O)[C@H]23)OCO4)cc(OC)c1OC`, the T/C is 131 % of control (dose: 3.5 mg/kg/injection, vehicle: saline with Tween-80); 136 % of control (dose: 9.6 mg/kg/injection, vehicle: saline with Tween-80); 137 % of control [8 of 10 alive on day 14] (dose: 16.0 mg/kg/injection, vehicle: saline with Tween-80); 146 % of control [9 of 10 alive on day 14] (dose: 26.7 mg/kg/injection, vehicle: saline with Tween-80). Moreover, the survivor count reads like this: (dose: 26.4 mg/kg/injection, vehicle: saline with Tween-80) 4 of 10 on day 14; (dose: 44.4 mg/kg/injection, vehicle: saline with Tween-80) 2 of 10 on day 14; (dose: 74.0 mg/kg/injection, vehicle: saline with Tween-80) 0 of 10 on day 14; (dose: 123.33 mg/kg/injection, vehicle: saline with Tween-80) 0 of 10 on day 14.

For `Cc1c(O)c(O)c(C)c(CCN)c1O`, the survivor count was 3 of 10 on day 14 (dose: 225.0 mg/kg/injection, vehicle: saline with Tween-80) and 0 of 10 on day 14 (dose: 450.0 mg/kg/injection, vehicle: saline with Tween-80).

Take `Cn1c(-c2ccc(Br)cc2)cc2[nH]c(=S)nc(N)c2c1=O`: the survivor count (dose: 400.0 mg/kg/injection, vehicle: saline with Tween-80) is 9 of 10 on day 14 and the survivor count under setting [1] is listed as 9 of 10 on day 14.

As to `O=C1C=CC(=CC=C2C=CN(CCCCCCCCCCCO)C=C2)C=C1`, the survivor count under setting [2] is given as 5 of 10 on day 14.

Turning to `O=C(CN1CCOCC1)Nc1nc(-c2ccc(Cl)cc2)cs1`, the survivor count runs as follows: (dose: 200.0 mg/kg/injection, vehicle: DMSO) 9 of 10 on day 14; (dose: 400.0 mg/kg/injection, vehicle: DMSO) 10 of 10 on day 14; (dose: 800.0 mg/kg/injection, vehicle: DMSO) 10 of 10 on day 14; (dose: 1200.0 mg/kg/injection, vehicle: DMSO) 10 of 10 on day 14.

Consider `CCOC(=O)Nc1cc(NC(C)/C(=N/O)c2ccccc2)c([N+](=O)[O-])c(N)n1` (stereo unspecified), for which the T/C (dose: 200.0 mg/kg/injection, vehicle: Klucel (hydroxypropylcellulose) (HPC), evaluated on day 39) was 143 % of control; the T/C (dose: 200.0 mg/kg/injection, vehicle: Klucel (hydroxypropylcellulose) (HPC), evaluated on day 60) is 135 % of control; the T/C under setting [3] is 129 % of control [8 of 10 alive on day 14]; the T/C (dose: 480.0 mg/kg/injection, vehicle: Klucel (hydroxypropylcellulose) (HPC)) was 125 % of control. Also, the survivor count under setting [4] is given as 4 of 10 on day 14.

As to `N[C@@H](C[C@H]1CCC(=O)[C@@H]2O[C@H]12)C(=O)O`, the T/C (dose: 800.0 mg/kg/injection, vehicle: saline) is 139 % of control.

`O=C1C2CC=CCC2C(=O)N1SC(Cl)(Cl)Cl` (stereo unspecified): under setting [5], the survivor count is 5 of 10 on day 14.

Take `CSC1SCC2C(=O)N(C)C(C(C)C)C(=O)OCC(NC(=O)c3cnc4ccccc4n3)C(=O)NC(C)C(=O)N(C)C1C(=O)N(C)C(C(C)C)C(=O)OCC(NC(=O)c1cnc3ccccc3n1)C(=O)NC(C)C(=O)N2C` (stereo unspecified): the T/C runs as follows: (dose: 200.0 micrograms/kg/injection, vehicle: saline with Tween-80) 127 % of control; (dose: 300.0 micrograms/kg/injection, vehicle: saline with Tween-80) 127 % of control [9 of 10 alive on day 14]. Moreover, the survivor count (dose: 400.0 micrograms/kg/injection, vehicle: saline with Tween-80) was 6 of 10 on day 14.

Consider `O=C(CCl)N1CCN(C/C=C/c2ccccc2)CC1`, for which the survivor count is on record as 6 of 10 on day 14 (dose: 300.0 mg/kg/injection, vehicle: saline) and 0 of 10 on day 14 (dose: 600.0 mg/kg/injection, vehicle: saline).

On to `O=C/C(Cl)=C(/Cl)C(=O)O`, for which the survivor count by setting is: under setting [5], 0 of 10 on day 14; under setting [2], 0 of 10 on day 14; (dose: 200.0 mg/kg/injection, vehicle: saline with Tween-80) 0 of 10 on day 14.

As for `CC[C@@]1(O)C(=O)OCc2c1cc1n(c2=O)Cc2cc3c(N)cccc3nc2-1`, the T/C (dose: 0.5 mg/kg/injection, vehicle: saline with Tween-80) was 142 and 149 % of control. Besides, the survivor count is given as 6 of 10 on day 14 (dose: 2.0 mg/kg/injection, vehicle: saline with Tween-80); 0 of 10 on day 14 (dose: 4.0 mg/kg/injection, vehicle: saline with Tween-80); 0 of 10 on day 14 (dose: 8.0 mg/kg/injection, vehicle: saline with Tween-80).

As for `NCc1cc(O)c(O)c(O)c1`, for the setting “dose: 1200.0 mg/kg/injection, vehicle: saline”, the survivor count is recorded as 5 of 10 on day 14.

Consider `CN1C=C/C(=C/[N+](=O)[O-])N(C)C1=O`, for which the survivor count under setting [3] was 1 of 10 on day 14.

In the case of `Nc1nc([Se]c2nc(N)nc3c2ncn3C2OC(CO)C(O)C2O)c2ncn(C3OC(CO)C(O)C3O)c2n1` (stereo unspecified), the T/C is 127 and 131 % of control under setting [6]; 138 % of control (dose: 100.0 mg/kg/injection, vehicle: distilled water + Tween-80). In addition, the survivor count under setting [7] is 2 of 10 on day 14 and the survivor count under setting [8] was 0 of 10 on day 14.

`ClCCCN1CCN(CCCl)CC1`: the T/C is 131 % of control (dose: 2.5 mg/kg/injection, vehicle: saline with Tween-80) and 140 % of control (dose: 5.0 mg/kg/injection, vehicle: saline with Tween-80). The survivor count (dose: 40.0 mg/kg/injection, vehicle: saline with Tween-80) is 0 of 10 on day 14.

Consider `Cc1[nH]c(=O)[nH]c(=O)c1C=O`, for which, under setting [1], the survivor count is recorded as 4 of 10 on day 14.

`Oc1c(Cl)cc(Cl)cc1C=NCCSc1ccc(Cl)cc1`: the survivor count under setting [4] was 0 of 10 on day 14.

As to `COC1C(CO)OC(n2c3c(Cl)cccc3c3c4c(c5c6cccc(Cl)c6[nH]c5c32)C(=O)NC4=O)C(O)C1O` (stereo unspecified), the T/C under setting [6] was 128 % of control; the T/C (dose: 187.0 mg/kg/injection, vehicle: distilled water + Tween-80) was 126 % of control; the T/C (dose: 200.0 mg/kg/injection, vehicle: distilled water + Tween-80) is 136 % of control; the T/C under setting [7] is 132 and 136 % of control. Further, the survivor count under setting [8] is 3 of 8 on day 14.

For the compound `OC1OCC(COc2ccc(Cl)cc2)OC1O` (stereo unspecified), the survivor count under setting [1] is given as 0 of 10 on day 14.

On to `O=C1C[C@@H](c2ccccc2)NCCCCN(O)CCCN1`, for which the survivor count (dose: 200.0 mg/kg/injection, vehicle: saline) is reported as 2 of 10 on day 14.
